Assay [1] has as its target Flag-tagged STUB1 deletion mutant lacking the TPR domain. Briefly: co-IP; HEK293T co-transfected with HA-GOT2 and Flag-tagged STUB1 (full length or deletion mutants); lysates immunoprecipitated by the tags (anti-Flag magnetic beads for the deletion mutants, 24 h), blotted for HA and Flag.
Assay [2] addresses Flag-tagged STUB1 deletion mutant lacking the U-box domain. Described as above.

No constants are given. Whether binding was seen depends on the method and setting. In cells and extracts the contact can be indirect. For some assays here: Binding can be weak; no strength is given. Where a sequence is shown, tags or fusion partners need not be part of it.

B1: HA-tagged GOT2 (enzyme, UniProt P00505 30-430)
chain: SSWWTHVEMGPPDPILGVTEAFKRDTNSKKMNLGVGAYRDDNGKPYVLPSVRKAEAQIAAKNLDKEYLPIGGLAEFCKASAELALGENSEVLKSGRFVTVQTISGTGALRIGASFLQRFFKFSRDVFLPKPTWGNHTPIFRDAGMQLQGYRYYDPKTCGFDFTGAVEDISKIPEQSVLLLHACAHNPTGVDPRPEQWKEIATVVKKRNLFAFFDMAYQGFASGDGDKDAWAVRHFIEQGINVCLCQSYAKNMGLYGERVGAFTMVCKDADEAKRVESQLKILIRPMYSNPPLNGARIAAAILNTPDLRKQWLQEVKVMADRIIGMRTQLVSNLKKEGSTHNWQHITDQIGMFCFTGLKPEQVERLIKEFSIYMTKDGRISVAGVTSSNVGYLAHAIHQVTK
Regarding B1, the binding entry in assay [1] is on record as “binds”; in assay [2], “no binding”.
